Measured values as given in patent publication US8796227B2, “Peptides for inhibiting chemokine binding to chemokine receptors” (Biokine Therapeutics Ltd., priority 2002, dated 2014).

Assay: Immunity of the peptides: injection into mice, serum antibody binding to peptide (Elisa O.D.)
Format: in vivo
Conditions: sera of mice after injection of the peptide; pre-immune serum showed no binding (FIG. 5)
Experimental: The preimmune serum of the same mice used as a control. “Blank” is the O.D. level of antibody binding to the plastic (of the Elisa experiment), with no addition of peptides.
Further examination of BKT-P3 and BKT-P2 (both belonging to family 1) for the immunity of these peptides was performed, by injecting those peptides to mice. The result of the experiment is graphically illustrated in FIG. 5.

SIPSHSIHSAKA [BKT-P2]
Level of immunity (O.D.) of immune sera against the peptide: high O.D. levels

SIFAHQTPTHKN [BKT-P3]
Level of immunity (O.D.) of immune sera against the peptide: high O.D. levels
